# Experimental data published in the supplement of paper PMC8728848.
# This is one part of the list.
# Assays:
# Test in all cases: glycan array binding signal (z-score within array); higher = stronger binding
# Conditions in all cases: glycan notation: IUPAC condensed, linker removed
# [1] = biological target: Gal(b1-3)Gal
# How it was run: (§1)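 Glycan array data were curated from 3228 arrays in the Consortium for Functional Glycomics database and kept only where the protein sequence was available. Glycan names were converted to IUPAC-condensed notation, and columns mapping to the same glycan were averaged. The binding signal is a within-array Z-score, averaged across arrays of the same protein sequence at different concentrations or buffers and across linkers. Negative Z-scores can be read as non-binding.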
# [2] = biological target: Gal(b1-3)Gal(b1-4)GlcNAc
# How it was run: as §1
# [3] = biological target: Gal(b1-3)GalNAc
# How it was run: as §1
# [4] = biological target: Gal(b1-3)GalNAc(a1-3)[Fuc(a1-2)]Gal(b1-4)Glc
# How it was run: as §1
# [5] = biological target: Gal(b1-3)GalNAc(a1-3)[Fuc(a1-2)]Gal(b1-4)GlcNAc
# How it was run: as §1
# [6] = biological target: Gal(b1-3)GalNAc(b1-3)Gal
# How it was run: as §1
# [7] = biological target: Gal(b1-3)GalNAc(b1-3)Gal(a1-4)Gal(b1-4)Glc
# How it was run: as §1
# [8] = biological target: Gal(b1-3)GalNAc(b1-4)Gal(b1-4)Glc
# How it was run: as §1
# [9] = biological target: Gal(b1-3)GalNAc(b1-4)[Neu5Ac(a2-3)]Gal(b1-4)Glc
# How it was run: as §1
# [10] = biological target: Gal(b1-3)GlcNAc
# How it was run: as §1
# [11] = biological target: Gal(b1-3)GlcNAc(a1-3)Gal(b1-4)GlcNAc
# How it was run: as §1
# [12] = biological target: Gal(b1-3)GlcNAc(a1-6)Gal(b1-4)GlcNAc
# How it was run: as §1
# [13] = biological target: Gal(b1-3)GlcNAc(b1-2)Man
# How it was run: as §1
# [14] = biological target: Gal(b1-3)GlcNAc(b1-2)Man(a1-3)[Gal(b1-3)GlcNAc(b1-2)Man(a1-6)]Man(b1-4)GlcNAc(b1-4)GlcNAc
# How it was run: as §1
# [15] = biological target: Gal(b1-3)GlcNAc(b1-2)Man(a1-3)[Gal(b1-3)GlcNAc(b1-2)Man(a1-6)]Man(b1-4)GlcNAc(b1-4)[Fuc(a1-6)]GlcNAc
# How it was run: as §1
# [16] = biological target: Gal(b1-3)GlcNAc(b1-2)Man(a1-3)[GlcNAc(b1-4)][Gal(b1-3)GlcNAc(b1-2)Man(a1-6)]Man(b1-4)GlcNAc(b1-4)GlcNAc
# How it was run: as §1
# [17] = biological target: Gal(b1-3)GlcNAc(b1-2)[Gal(b1-3)GlcNAc(b1-6)]Man(a1-6)[Gal(b1-3)GlcNAc(b1-2)Man(a1-3)]Man(b1-4)GlcNAc(b1-4)GlcNAc
# How it was run: as §1
# [18] = biological target: Gal(b1-3)GlcNAc(b1-3)Gal(b1-3)GlcNAc
# How it was run: as §1
# [19] = biological target: Gal(b1-3)GlcNAc(b1-3)Gal(b1-4)Glc
# How it was run: as §1
# [20] = biological target: Gal(b1-3)GlcNAc(b1-3)Gal(b1-4)GlcNAc
# How it was run: as §1
# [21] = biological target: Gal(b1-3)GlcNAc(b1-3)Gal(b1-4)GlcNAc(b1-2)Man(a1-3)[Gal(b1-3)GlcNAc(b1-3)Gal(b1-4)GlcNAc(b1-2)Man(a1-6)]Man(b1-4)GlcNAc(b1-4)GlcNAc
# How it was run: as §1
# [22] = biological target: Gal(b1-3)GlcNAc(b1-3)Gal(b1-4)GlcNAc(b1-2)[Gal(b1-3)GlcNAc(b1-3)Gal(b1-4)GlcNAc(b1-6)]Man(a1-6)[Gal(b1-3)GlcNAc(b1-3)Gal(b1-4)GlcNAc(b1-2)Man(a1-3)]Man(b1-4)GlcNAc(b1-4)[Fuc(a1-6)]GlcNAc
# How it was run: as §1
# [23] = biological target: Gal(b1-3)GlcNAc(b1-3)Gal(b1-4)GlcNAc(b1-3)Gal(b1-4)GlcNAc(b1-2)[Gal(b1-3)GlcNAc(b1-3)Gal(b1-4)GlcNAc(b1-3)Gal(b1-4)GlcNAc(b1-6)]Man(a1-6)[Gal(b1-3)GlcNAc(b1-3)Gal(b1-4)GlcNAc(b1-3)Gal(b1-4)GlcNAc(b1-2)Man(a1-3)]Man(b1-4)GlcNAc(b1-4)[Fuc(a1-6)]GlcNAc
# How it was run: as §1
# [24] = biological target: Gal(b1-3)GlcNAc(b1-3)Gal(b1-4)GlcNAc(b1-6)[Gal(b1-3)GlcNAc(b1-3)]Gal(b1-4)Glc
# How it was run: as §1
# [25] = biological target: Gal(b1-3)GlcNAc(b1-3)Gal(b1-4)[Fuc(a1-3)]GlcNAc
# How it was run: as §1
# [26] = biological target: Gal(b1-3)GlcNAc(b1-3)Gal(b1-4)[Fuc(a1-3)]GlcNAc(b1-6)[Gal(b1-3)GlcNAc(b1-3)]Gal(b1-4)Glc
# How it was run: as §1
# [27] = biological target: Gal(b1-3)GlcNAc(b1-3)GalNAc
# How it was run: as §1
# [28] = biological target: Gal(b1-3)GlcNAc(b1-6)Gal(b1-4)GlcNAc
# How it was run: as §1
# [29] = biological target: Gal(b1-3)GlcNAc(b1-6)GalNAc
# How it was run: as §1
# [30] = biological target: Gal(b1-3)GlcNAc(b1-6)[Gal(b1-3)]GalNAc
# How it was run: as §1
# [31] = biological target: Gal(b1-3)GlcNAc6S
# How it was run: as §1
# [32] = biological target: Gal(b1-3)[Fuc(a1-4)]GlcNAc
# How it was run: as §1
# [33] = biological target: Gal(b1-3)[Fuc(a1-4)]GlcNAc(b1-2)Man
# How it was run: as §1
# [34] = biological target: Gal(b1-3)[Fuc(a1-4)]GlcNAc(b1-2)Man(a1-3)[Gal(b1-3)[Fuc(a1-4)]GlcNAc(b1-2)Man(a1-6)]Man(b1-4)GlcNAc(b1-4)[Fuc(a1-6)]GlcNAc
# How it was run: as §1
# [35] = biological target: Gal(b1-3)[Fuc(a1-4)]GlcNAc(b1-3)Gal(b1-3)[Fuc(a1-4)]GlcNAc
# How it was run: as §1
# [36] = biological target: Gal(b1-3)[Fuc(a1-4)]GlcNAc(b1-3)Gal(b1-4)[Fuc(a1-3)]GlcNAc
# How it was run: as §1
# [37] = biological target: Gal(b1-3)[Fuc(a1-4)]GlcNAc(b1-6)GalNAc
# How it was run: as §1
# [38] = biological target: Gal(b1-3)[GlcNAc(b1-6)]GalNAc
# How it was run: as §1
# [39] = biological target: Gal(b1-3)[Neu5Ac(a2-6)]GalNAc
# How it was run: as §1
# [40] = biological target: Gal(b1-3)[Neu5Ac(a2-6)]GlcNAc(b1-4)Gal(b1-4)Glc
# How it was run: as §1
# [41] = biological target: Gal(b1-3)[Neu5Ac(b2-6)]GalNAc
# How it was run: as §1
# [42] = biological target: Gal(b1-4)Gal
# How it was run: as §1
# [43] = biological target: Gal(b1-4)GalNAc(a1-3)[Fuc(a1-2)]Gal(b1-4)GlcNAc
# How it was run: as §1
# [44] = biological target: Gal(b1-4)GalNAc(b1-3)[Fuc(a1-2)]Gal(b1-4)GlcNAc
# How it was run: as §1
# [45] = biological target: Gal(b1-4)Glc
# How it was run: as §1
binder,measurement,setting,value
Pbx1CASH domain (Cryptococcus neoformans) (protein) MDETKPLWGNPRADGISLACKDSIVERNVVYDATDGAIVLFGSAGSTVKNNHVYARTRVILGGINLVDYEPWDGDYTNVKVHHNHLYALGRYFKVGIVIGPASWSDDTESVVHSASVTDNEFSGGYWGYGIVVASAKNFEVLRNKVIWDGEQGVARFSGVPGS,glycan array binding signal (z-score),[1],-0.769
same,glycan array binding signal (z-score),[2],-0.418
same,glycan array binding signal (z-score),[3],0.52
same,glycan array binding signal (z-score),[4],0.601
same,glycan array binding signal (z-score),[5],0.739
same,glycan array binding signal (z-score),[6],-0.496
same,glycan array binding signal (z-score),[7],0.926
same,glycan array binding signal (z-score),[8],-0.463
same,glycan array binding signal (z-score),[9],-0.501
same,glycan array binding signal (z-score),[10],-0.543
same,glycan array binding signal (z-score),[11],-0.719
same,glycan array binding signal (z-score),[12],-0.44
same,glycan array binding signal (z-score),[13],0.145
same,glycan array binding signal (z-score),[14],-0.708
same,glycan array binding signal (z-score),[15],-0.004
same,glycan array binding signal (z-score),[16],0.331
same,glycan array binding signal (z-score),[17],0.784
same,glycan array binding signal (z-score),[18],-0.464
same,glycan array binding signal (z-score),[19],-0.602
same,glycan array binding signal (z-score),[20],-0.422
same,glycan array binding signal (z-score),[21],-0.328
same,glycan array binding signal (z-score),[22],-0.438
same,glycan array binding signal (z-score),[23],0.49
same,glycan array binding signal (z-score),[24],0.76
same,glycan array binding signal (z-score),[25],-0.17
same,glycan array binding signal (z-score),[26],-0.446
same,glycan array binding signal (z-score),[27],1.17
same,glycan array binding signal (z-score),[28],0.195
same,glycan array binding signal (z-score),[29],0.181
same,glycan array binding signal (z-score),[30],1.3
same,glycan array binding signal (z-score),[31],1.34
same,glycan array binding signal (z-score),[32],-0.336
same,glycan array binding signal (z-score),[33],1.14
same,glycan array binding signal (z-score),[34],-0.007
same,glycan array binding signal (z-score),[35],-1
same,glycan array binding signal (z-score),[36],0.111
same,glycan array binding signal (z-score),[37],0.923
same,glycan array binding signal (z-score),[38],-0.562
same,glycan array binding signal (z-score),[39],-0.674
same,glycan array binding signal (z-score),[40],0.189
same,glycan array binding signal (z-score),[41],-0.655
same,glycan array binding signal (z-score),[42],1.1
same,glycan array binding signal (z-score),[43],-0.791
same,glycan array binding signal (z-score),[44],-0.748
same,glycan array binding signal (z-score),[45],-0.237

# Given with bars between the fields: entries from further up.
binder | measurement | setting | value
Pbx1CASH domain (Cryptococcus neoformans) (protein) MDETKPLWGNPRADGISLACKDSIVERNVVYDATDGAIVLFGSAGSTVKNNHVYARTRVILGGINLVDYEPWDGDYTNVKVHHNHLYALGRYFKVGIVIGPASWSDDTESVVHSASVTDNEFSGGYWGYGIVVASAKNFEVLRNKVIWDGEQGVARFSGVPGS | glycan array binding signal (z-score) | [22] | -0.438
same | glycan array binding signal (z-score) | [23] | 0.49
same | glycan array binding signal (z-score) | [24] | 0.76
same | glycan array binding signal (z-score) | [25] | -0.17
